This is one part of the list. Shown are side measurements of this screen, not its main read-out; they come without a call. The list favours compounds with an active or inconclusive main result. Potencies come from curve fits of mixed quality, noted in brackets.
Test: qHTS Assay to Find Inhibitors of Chronic Active B-Cell Receptor Signaling
Conditions: ABC-DLBCL IkBa-CBG/CBR reporter, luminescence ratio (green luciferase fused to IkBa over red control in TMD8 lymphoma cells), 4 h
How it was run: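 Concentration-response series (up to 46 uM) were applied to TMD8 dual-reporter cells for 4 h at 37C with doxycycline. Green/red ratio, after filter-overlap correction, defined %Activity; red signal alone was normalised to basal cells and zero luminescence.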

[1] = measured here: CBR red luminescence, cell number
[2] = measured here: IkBa-CBG green luminescence

Compound	AC50 [1]	AC50 [2]
Cc1ccc(NC2=Nc3ccccc3CC2)cc1	29.1 µM [falling, single point]	–
Cc1nn(-c2nc3ccccc3[nH]2)c(N)c1-c1ccccc1	29.1 µM [falling, single point]	–
Cc1cc2n(n1)SC(Nc1ccc(F)c(Cl)c1)N2 (stereo not drawn)	0.731 µM [rising, full curve, poor fit]	–
S=C(NCCC(c1ccccc1)c1ccccc1)Nc1ccc(Cl)cc1	11.2 µM [falling, partial curve]	25.1 µM [rising, partial curve, poor fit]
CCN(CC(=O)Nc1c(F)cccc1F)C(=O)/C=C/c1ccc(OCC#N)c(OC)c1	32.6 µM [rising, partial curve, poor fit]	–
Cc1cccc(NC(=O)CN2C(=O)NC(Cc3ccccc3)C2=O)c1 (stereo not drawn)	29.1 µM [rising, single point]	–
Cc1ccc(Cl)cc1N1CCN(C(=O)C2CCC(=O)N(C3CCCCCC3)C2)CC1 (stereo not drawn)	3.98 µM [falling, single point]	–
CCOC(=O)c1cnc(-n2nc(C)cc2C)nc1NCCc1ccccc1	–	35.5 µM [rising, partial curve, poor fit]
COCCCNC(=O)/C(C#N)=c1\s/c(=C\c2ccccc2OC(F)F)c(=O)n1CCCOC	16.4 µM [falling, single point]	–
Cc1cn(C2CC(OC(=O)C(C)C)C(CO)O2)c(=O)[nH]c1=O (stereo not drawn)	29.1 µM [rising, single point]	–
Cc1ccc(S(=O)(=O)N(C)C2(C)CCS(=O)(=O)C2)cc1 (stereo not drawn)	4.11 µM [falling, single point]	–
CCn1nc(NC(=O)c2cccs2)c2cc3ccccc3nc21	10 µM [falling, partial curve, poor fit]	–
COc1ccc(C(NC(=O)C2CCCCC2)c2c(O)ccc3ccccc23)cc1 (stereo not drawn)	–	20.6 µM [rising, partial curve, poor fit]
O=C(NCCC1CCCCN1S(=O)(=O)c1cccs1)C(=O)Nc1ccc(F)cc1 (stereo not drawn)	4.61 µM [falling, partial curve]	–
O=C1c2ccccc2C(=O)c2[nH]c(=O)[nH]c21	12.6 µM [falling, partial curve]	–
CC#CC#Cc1cccc(=O)o1	15.8 µM [falling, partial curve, poor fit]	–
NC(=O)CN(N=Nc1cccc([N+](=O)[O-])c1)c1cccc([N+](=O)[O-])c1	20 µM [rising, partial curve, poor fit]	–
CC1CN(C(=S)SCC(=O)c2ccccc2)CC(C)O1 (stereo not drawn)	0.231 µM [rising, full curve, poor fit]	–
N#Cc1c(-c2ccccc2)ccnc1Oc1ccccc1	7.94 µM [rising, partial curve, poor fit]	–
COc1ccc(Cl)cc1NC(=O)CSc1nc2sccc2c(=O)[nH]1	35.5 µM [falling, single point]	–
O=c1c([N+](=O)[O-])c(NC2CCCCC2)c2ccccc2n1-c1ccccc1	6.51 µM [rising, partial curve]	–
CCOC(=O)c1cc(-c2ccccc2)sc1NC(=O)c1cc(OC)c(OC)c(OC)c1	25.9 µM [rising, single point]	–

Compound	AC50 [1]	AC50 [2]
O=C(/C=C/c1ccco1)Nc1cc(Cl)ccc1C(=O)O	5.17 µM [falling, partial curve]	–
CSc1nc2ccc(S(=O)(=O)N3CCOCC3)cc2s1	6.51 µM [rising, single point]	–
Cc1cc(=O)n2c(C(=O)Nc3ccc(C)c(C)c3)c(C(=O)Nc3ccccc3)sc2n1	7.94 µM [falling, partial curve]	–
CCc1ccc(NC(=O)c2ccc(Cn3cc([N+](=O)[O-])cn3)cc2)cc1	29.1 µM [rising, single point]	–
COc1cccc(NC(=S)NNC(=O)c2ccccc2OC(F)F)c1	17.8 µM [falling, partial curve, poor fit]	–
c1cc(Nc2ncnc3sccc23)cc(-c2nnc3n2CCCCC3)c1	3.16 µM [falling, single point]	–
Fc1ccc(CCN2CCN=C2Nc2ccccc2)cc1	6.51 µM [rising, single point]	–
CCCCCCCCC#Cc1nc(C)ccc1OC	29.1 µM [rising, partial curve, poor fit]	–
c1ccc(CCNc2ccccc2)cc1	2.82 µM [rising, full curve]	–
CCOc1ccc(NS(=O)(=O)c2ccc3[nH]c(=O)oc3c2)cc1	6.51 µM [falling, full curve]	–
COc1ccc2nc(NC(=O)c3ccc(F)cc3)sc2c1	3.98 µM [falling, full curve, poor fit]	–
COc1cc(OC)nc(-n2ncc(OC)c(Br)c2=O)n1	32.6 µM [rising, partial curve, poor fit]	–
COc1ccc(NC(=O)c2cc3ccccc3cc2O)cc1	10 µM [falling, partial curve]	–
CC(Oc1ccc(Br)cc1Br)C(=O)Nc1cccnc1Cl (stereo not drawn)	1.58 µM [rising, full curve, poor fit]	–
COc1ccc(NC(=O)/C(C#N)=C/c2c(C)nn(-c3ccc(F)cc3)c2Cl)cc1OC	–	23.1 µM [falling, single point]
N/C(=N\OC(=O)CCC1CCCC1)c1cccc([N+](=O)[O-])c1	7.31 µM [rising, partial curve]	–
Cc1ccc(-n2c(=O)[nH]c3c(oc4ccccc43)c2=O)cc1	1.26 µM [rising, partial curve, poor fit]	–
COc1cc(C(=O)O/N=C(\N)c2ccc([N+](=O)[O-])cc2)cc(OC)c1OC	4.11 µM [rising, full curve]	4.11 µM [falling, partial curve, poor fit]
O=C(O)c1cc2ccc3ccccc3c2[nH]1	5.17 µM [rising, partial curve, poor fit]	–
O=C1OC(c2ccc(O)cc2)(c2ccc(O)cc2)c2ccccc21	14.1 µM [falling, single point]	–
c1ccc(OCCN2CCN(Cc3nc(-c4ccc5c(c4)OCO5)no3)CC2)cc1	11.2 µM [rising, single point]	–
COc1ccc(CNC(=O)c2c(N)n(CCCN3CCOCC3)c3nc4ccccc4nc23)cc1	32.6 µM [falling, single point]	–

Compound	AC50 [1]	AC50 [2]
COC(=O)c1cnc(Nc2cccc(C(F)(F)F)c2)c([N+](=O)[O-])c1	2.51 µM [rising, partial curve, poor fit]	–
CCOC(=O)Cc1csc(NC(=O)Cc2ccccc2)n1	14.1 µM [rising, single point]	–
Cc1ccc(-c2cc(C(=O)NCC3CCCO3)no2)cc1 (stereo not drawn)	5.8 µM [falling, partial curve]	–
CCOC(=O)c1c(C)[nH]c(C)c1S(=O)(=O)NCCN1CCN(c2cc(Cl)ccc2C)CC1	35.5 µM [falling, single point]	–
COc1ccc(NC(=O)CN2CCN(S(=O)(=O)N(C)C)CC2)cc1	35.5 µM [rising, single point]	–
Cn1cccc1Cc1nnc(SCC(=O)N2CCCC2)n1CCc1ccccc1	2.59 µM [rising, full curve]	–
COc1ccc(NC(=O)C2C3CCC(O3)C2C(=O)O)cc1OC (stereo not drawn)	35.5 µM [rising, single point]	–
COC(=O)[C@H](CCSC)NC(=O)Nc1ccc(C)c(C)c1	12.6 µM [rising, partial curve]	–
COc1ccc(/C=N\NC(=O)C2=NNC(=O)C2C)cc1 (stereo not drawn)	1 µM [falling, full curve]	–
O=S1(=O)c2ccc(Br)cc2N2CCC[C@@H]2CN1Cc1ccccc1	29.1 µM [rising, single point]	–
NC(=O)Nc1ccc(C(=O)OCC(=O)c2c[nH]c3ccccc23)cc1	7.31 µM [falling, partial curve]	–
O=C(COc1ccccc1)Nc1ccccc1F	12.6 µM [falling, partial curve]	–
CC1(C)Cc2c(sc(NC(=O)COc3cccc4ccccc34)c2C#N)C(C)(C)N1	7.94 µM [rising, partial curve, poor fit]	–
Cc1ccc(C(=O)Nc2cc(=O)n(C)c(=O)n2C)o1	–	29.1 µM [rising, partial curve, poor fit]
O=C(Nc1cc(Br)ccc1O)c1cc(-c2ccco2)on1	10 µM [falling, single point]	–
CC(=O)c1cc2c(C)c(C(=O)c3ccccc3)oc2cc1O	2.31 µM [rising, partial curve, poor fit]	–
Fc1ccccc1CSc1nnc(-c2cccs2)o1	5.01 µM [rising, partial curve]	–
CCSC1=N/C(=C\c2ccc(OC)cc2)C(=O)N1	6.51 µM [rising, partial curve, poor fit]	–
CCN(CC)S(=O)(=O)c1ccc(N2CCCC2)c(NC(=O)c2c(-c3ccccc3)noc2C)c1	20 µM [rising, partial curve, poor fit]	–
O=C(Nc1cc(Cl)cc(Cl)c1)N1CCCC1	25.1 µM [falling, single point]	–
N#CC1=C(SCC(=O)Nc2cccc3cccnc23)NC(=O)C(C#N)C12CCCCC2 (stereo not drawn)	29.1 µM [falling, single point]	–
O=C1NC2(CCCC2)C(=O)N1Cc1cc(=O)n2ccsc2n1	5.62 µM [falling, single point]	–

Retrieved by structure from the entries so far:
Compound	AC50 [1]	AC50 [2]
Cc1ccc(C(=O)Nc2cc(=O)n(C)c(=O)n2C)o1	–	29.1 µM [rising, partial curve, poor fit]
O=C(Nc1cc(Cl)cc(Cl)c1)N1CCCC1	25.1 µM [falling, single point]	–
O=C(Nc1cc(Br)ccc1O)c1cc(-c2ccco2)on1	10 µM [falling, single point]	–
Cc1ccc(-c2cc(C(=O)NCC3CCCO3)no2)cc1 (stereo not drawn)	5.8 µM [falling, partial curve]	–
